From PubChem BioAssay AID1671190 (National Center for Advancing Translational Sciences (NCATS), 2021)
Screen size: about 580,000 compounds; about 6,100 (1.1%) were called active. The inconclusive results got no clear call from the source; some entries with a clear call stand among them for comparison. Calls come from the whole dose curve; as a rule, active = well fitted inhibition curve with a large enough effect; inconclusive = small, poorly fitted or top-dose-only effect, or another doubt; inactive = no such curve, though single readings can be large or run the other way. Potencies beside an inconclusive call are fits to weak or partial responses and may not hold up.

Chains of the proteins cited; added tags and fusions are not shown.
UniProt P18054, whole entry, looked up: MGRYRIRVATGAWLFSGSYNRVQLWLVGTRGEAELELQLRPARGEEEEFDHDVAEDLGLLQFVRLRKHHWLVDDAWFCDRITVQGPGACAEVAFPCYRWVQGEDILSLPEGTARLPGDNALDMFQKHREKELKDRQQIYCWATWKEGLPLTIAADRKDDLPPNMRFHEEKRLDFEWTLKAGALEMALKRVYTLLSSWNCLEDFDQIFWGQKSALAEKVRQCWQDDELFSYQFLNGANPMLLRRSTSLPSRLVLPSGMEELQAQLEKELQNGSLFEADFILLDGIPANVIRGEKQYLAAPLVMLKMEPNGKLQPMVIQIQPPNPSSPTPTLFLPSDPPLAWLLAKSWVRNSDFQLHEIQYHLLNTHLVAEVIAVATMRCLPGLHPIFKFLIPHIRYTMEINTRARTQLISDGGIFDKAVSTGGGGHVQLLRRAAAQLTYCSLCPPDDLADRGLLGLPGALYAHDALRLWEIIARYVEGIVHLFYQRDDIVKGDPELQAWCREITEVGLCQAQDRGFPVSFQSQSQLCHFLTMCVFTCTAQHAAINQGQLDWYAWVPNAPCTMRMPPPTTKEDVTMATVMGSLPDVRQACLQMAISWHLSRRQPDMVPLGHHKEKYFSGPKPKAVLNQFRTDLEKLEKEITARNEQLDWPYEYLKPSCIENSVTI

Biological target: Polyunsaturated fatty acid lipoxygenase ALOX12 (Homo sapiens) (UniProt P18054)
Assay: Primary qHTS assay for inhibitors of human arachidonate 12S-lipoxygenase (ALOX12): Round 2
Settings: purified 12hLO, xylenol orange hydroperoxide absorbance; activity change, negative = inhibition: at 108 µM (top of the series) unless noted
Outline: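 Hydroperoxide product was detected by ferrous iron/xylenol orange as the 573 to 405 nm absorbance ratio. Arachidonic acid at 40 uM (final) was turned over for 30 min at room temperature by 150 nM human 12hLO, pH 7.0 Hepes buffer, after 15 min compound preincubation.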
% is set by controls: 0 for no effect and ±100 for the full control effect; potency is the fitted concentration of half-maximal effect.

SMILES	Potency	activity change, negative = inhibition
COc1ccccc1N1CCN(Cc2ccco2)CC1	inconclusive: 0.282 µM [inhibitor, full curve, poor fit]	–
O=C(Nc1cccc(S(=O)(=O)N2CCCCCC2)c1)C1CCN(C(=O)c2ccc(Cl)cc2)CC1	inconclusive: 35.5 µM [inhibitor, single point]	–
O=S(=O)(NCC1CCCO1)c1ccc(-c2ccc(Cl)cc2)cc1 (stereo not drawn)	–	inactive: -9.52%
CCN(CC(=O)NC(C)C)C(=O)c1cc(C(C)C)nc2ccccc12	inconclusive: 44.7 µM [inhibitor, partial curve, poor fit]	–
COc1ccc(-c2noc(Cn3nc(-c4ccc(C)c(C)c4)c4ccccc4c3=O)n2)c(OC)c1	inconclusive: 126 µM [inhibitor, single point]	–
C#CCNC(=O)C1=C[C@H](c2ccc3c(c2)OCO3)[C@@H](CCCO)[C@H](OCC)O1	inconclusive: 112 µM [inhibitor, single point]	–
Fc1ccccc1-c1nc(NC2CCCCC2)c2ccccc2n1	inconclusive: 56.2 µM [inhibitor, single point]	–
CCn1c(=O)cc(OCC(=O)NCCCN2CCN(c3cccc(Cl)c3)CC2)c2ccccc21	inconclusive: 1 µM [inhibitor, partial curve, poor fit]	–
CC(C)C[C@@H](C=O)NC(=O)[C@H](CC(C)C)NC(=O)[C@H](CC(C)C)NC(=O)OCc1ccccc1	inactive	–
CCOc1ccc2c(c1)c(N=NC(N)=S)c(O)n2C	active: 5.01 µM	–
CNC(=O)C1CCCN(S(=O)(=O)c2c(C)nn(CC(=O)N3CCc4ccccc43)c2C)C1 (stereo not drawn)	inconclusive: 89.1 µM [inhibitor, partial curve, poor fit]	–
Cn1c(-c2ccccn2)[n+](C)c2ccccc21	–	inactive: -20.6%
Cc1nc(C(F)(F)F)ccc1C(=O)N1CCC1(C)C(=O)NS(=O)(=O)c1ccc(Cl)cc1 (stereo not drawn)	inconclusive: 14.1 µM [inhibitor, full curve, poor fit]	–
COc1ccc(S[C@]2(c3nc(-c4cccnc4)no3)CC(=O)N[C@@H]2c2ccc(OC)cc2)cc1	inconclusive: 50.1 µM [inhibitor, partial curve, poor fit]	–
CC(C)Oc1cccc(-c2n[nH]c3c2CC(=O)N(Cc2ccccn2)C3)c1	–	inactive: -17.2% [at 176 µM]
CCSc1nnc(-c2nn(C)c3c2CN(S(=O)(=O)c2ccc(C(C)=O)cc2)CC3)n1CC	inconclusive: 112 µM [inhibitor, partial curve, poor fit]	–
Cc1n[nH]c(=S)n1/N=C/c1ccccc1OCc1ccc(Cl)cc1Cl	–	inactive: 4.98%
O=C1C=C(c2ccc(CO)cc2)C[C@@H](c2ccc3c(c2)OCO3)C1	inconclusive: 56.2 µM [inhibitor, partial curve, poor fit]	–

2 of the compounds above, in CSV form:
SMILES,Potency,"activity change, negative = inhibition"
CC(C)C[C@@H](C=O)NC(=O)[C@H](CC(C)C)NC(=O)[C@H](CC(C)C)NC(=O)OCc1ccccc1,inactive,–
CCOc1ccc2c(c1)c(N=NC(N)=S)c(O)n2C,active: 5.01 µM,–
